Experimental data: patent US20130217613A1
No constants are given. Whether binding was seen depends on the method and setting. For some of these results: In cells and extracts the contact can be indirect. Some entries that bind do so weakly or less than the wild type. Sequences can lack the tags named with a protein.

Chains of the proteins cited; added tags and fusions are not shown. Lines headed by an entry give the natural chain unless they say otherwise; changes in a name come on top. A line that says so, or that is headed by a name, gives the form on record, which may keep a tag or linker. Residues count along the entry.
UniProt Q9C005: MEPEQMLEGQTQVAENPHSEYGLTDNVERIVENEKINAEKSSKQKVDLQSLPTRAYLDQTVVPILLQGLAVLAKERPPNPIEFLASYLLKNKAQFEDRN
His-tagged human Dpy-30 domain only (Dpy-30 45-99): residues 45-99 of Q9C005
His-Dpy-30 D/D (a.a. #49-99): residues 49-99 of Q9C005

How the values were obtained:
[1] = target: His-tagged human Dpy-30 protein (full length) (human) (UniProt Q9C005); assay: Ni-NTA pulldown of co-expressed proteins, GST western blot
[2] = target: His-tagged human Dpy-30 domain only (Dpy-30 45-99) (human) (UniProt Q9C005); assay: as above
[3] = target: His-tagged human Dpy-30 domain only (Dpy-30 45-99) (human) (UniProt Q9C005); assay: Ni-NTA pulldown with Dpy-30 45-99, GST western blot
[4] = target: His-tagged human Dpy-30 protein (full length) (human) (UniProt Q9C005); assay: Ni-NTA pulldown (discussion of Example 1)
[5] = target: His-tagged human Dpy-30 protein (full length) (human) (UniProt Q9C005); assay: Ni-NTA pulldown of co-expressed proteins
[6] = target: His-tagged human Dpy-30 protein (full length) (human) (UniProt Q9C005); assay: Ni-NTA pulldown, Coomassie gel
[7] = target: His-tagged human Dpy-30 protein (full length) (human) (UniProt Q9C005); assay: Ni-NTA pulldown; Table 3 token for evidently co-purified with Dpy-30
[8] = target: His-Dpy-30 D/D (a.a. #49-99) (human) (UniProt Q9C005); assay: Ni-NTA pulldown (discussion of Example 2)

binding [1]	binding [2]	binding [3]	binding [4]	binding [5]	binding [6]	binding [7]	binding [8]	Binder
binds	binds	binds	binds	binds	–	–	–	PWLKEQAIGYLARGVVARRVVDKLVEDAA (peptide, not shown: a dimerising Fc or GST) [GST-tagged RSP3 280-308 (contains the Dpy-30-binding amphipathic helix AHD)]
–	–	–	–	–	binds	binds	binds	PMSDMGWGAVVKHTLADVLYHVETEVDGRRS (peptide, not shown: a dimerising Fc or GST; large carriers; small tags and cut ends) [GST-hAsh2 593-623 E604K variant]
binds	–	binds	–	–	–	–	–	PWLKEQAIGYLARGVVARRVVDKLVEDAAAALAANRS (peptide, not shown: a dimerising Fc or GST) [GST-tagged RSP3 280-316]
